Measurements: patent publication US20070178101A1
No constants are given. Whether binding was seen depends on the method and setting. Some entries that bind do so weakly or less than the wild type.

What was measured:
[1] = biological target: T1, Ovr110 on transiently transfected 293F cells (human) (UniProt Q7Z7D3); assay: FACS (legend of FIG. 7)
T1 sequence: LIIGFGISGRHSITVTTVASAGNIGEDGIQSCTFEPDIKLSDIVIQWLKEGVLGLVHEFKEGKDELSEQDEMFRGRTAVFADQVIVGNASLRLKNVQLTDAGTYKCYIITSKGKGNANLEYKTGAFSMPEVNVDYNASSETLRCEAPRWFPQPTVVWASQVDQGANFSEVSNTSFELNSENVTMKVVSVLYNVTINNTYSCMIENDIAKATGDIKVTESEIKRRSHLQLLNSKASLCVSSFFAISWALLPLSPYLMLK

[2] = biological target: T1, Ovr110 on transiently transfected 293F cells (human); assay: FACS, Ovr110-293F cells

binding [1]: binds
binding [2]: binds
B1: BTLA5NT_mFc (Fc fusion)
chain: KESCDVQLYIKRQSEHSILAGDPFELECPVKYCANRPHVTWCKLNGTTCVKLEDRQTSWKEEKNISFFILHFEPVLPNDNGSYRCSANFQSNLIESHSTTLYVTDVKSASERPSKDEMASRPASENLYFQGPRGPTIKPCPPCKCPAPNLLGGPSVFIFPPKIKDVLMISLSPIVTCVVVDVSEDPDVQISWFVNNVEVHTAQTQTHREDYNSTLRVVSALPIQHQDWMSGKEFKCKVNNKDLPAPIERTISKPKGVRAPQVYVLPPPEEEMTKKQVTLTCMVTDFMPEDIYVEWTNNGKTELNYKNTEPVLDSDGSYFMYSKLRVEKNWVERNSYSCSVVHEGLHNHHTTKSFSRTPGK
